In the supplement of paper PMC10849652:
This is one part of the list.

Protein sequences, listed by entry. Tags and fused reporters are not part of them. Lines headed by an entry give the natural chain unless they say otherwise; changes in a name come on top.
UniProt Q15053: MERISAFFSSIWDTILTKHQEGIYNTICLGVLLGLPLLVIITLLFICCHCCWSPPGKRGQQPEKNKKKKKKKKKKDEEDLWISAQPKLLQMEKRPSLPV
UniProt Q8NG31: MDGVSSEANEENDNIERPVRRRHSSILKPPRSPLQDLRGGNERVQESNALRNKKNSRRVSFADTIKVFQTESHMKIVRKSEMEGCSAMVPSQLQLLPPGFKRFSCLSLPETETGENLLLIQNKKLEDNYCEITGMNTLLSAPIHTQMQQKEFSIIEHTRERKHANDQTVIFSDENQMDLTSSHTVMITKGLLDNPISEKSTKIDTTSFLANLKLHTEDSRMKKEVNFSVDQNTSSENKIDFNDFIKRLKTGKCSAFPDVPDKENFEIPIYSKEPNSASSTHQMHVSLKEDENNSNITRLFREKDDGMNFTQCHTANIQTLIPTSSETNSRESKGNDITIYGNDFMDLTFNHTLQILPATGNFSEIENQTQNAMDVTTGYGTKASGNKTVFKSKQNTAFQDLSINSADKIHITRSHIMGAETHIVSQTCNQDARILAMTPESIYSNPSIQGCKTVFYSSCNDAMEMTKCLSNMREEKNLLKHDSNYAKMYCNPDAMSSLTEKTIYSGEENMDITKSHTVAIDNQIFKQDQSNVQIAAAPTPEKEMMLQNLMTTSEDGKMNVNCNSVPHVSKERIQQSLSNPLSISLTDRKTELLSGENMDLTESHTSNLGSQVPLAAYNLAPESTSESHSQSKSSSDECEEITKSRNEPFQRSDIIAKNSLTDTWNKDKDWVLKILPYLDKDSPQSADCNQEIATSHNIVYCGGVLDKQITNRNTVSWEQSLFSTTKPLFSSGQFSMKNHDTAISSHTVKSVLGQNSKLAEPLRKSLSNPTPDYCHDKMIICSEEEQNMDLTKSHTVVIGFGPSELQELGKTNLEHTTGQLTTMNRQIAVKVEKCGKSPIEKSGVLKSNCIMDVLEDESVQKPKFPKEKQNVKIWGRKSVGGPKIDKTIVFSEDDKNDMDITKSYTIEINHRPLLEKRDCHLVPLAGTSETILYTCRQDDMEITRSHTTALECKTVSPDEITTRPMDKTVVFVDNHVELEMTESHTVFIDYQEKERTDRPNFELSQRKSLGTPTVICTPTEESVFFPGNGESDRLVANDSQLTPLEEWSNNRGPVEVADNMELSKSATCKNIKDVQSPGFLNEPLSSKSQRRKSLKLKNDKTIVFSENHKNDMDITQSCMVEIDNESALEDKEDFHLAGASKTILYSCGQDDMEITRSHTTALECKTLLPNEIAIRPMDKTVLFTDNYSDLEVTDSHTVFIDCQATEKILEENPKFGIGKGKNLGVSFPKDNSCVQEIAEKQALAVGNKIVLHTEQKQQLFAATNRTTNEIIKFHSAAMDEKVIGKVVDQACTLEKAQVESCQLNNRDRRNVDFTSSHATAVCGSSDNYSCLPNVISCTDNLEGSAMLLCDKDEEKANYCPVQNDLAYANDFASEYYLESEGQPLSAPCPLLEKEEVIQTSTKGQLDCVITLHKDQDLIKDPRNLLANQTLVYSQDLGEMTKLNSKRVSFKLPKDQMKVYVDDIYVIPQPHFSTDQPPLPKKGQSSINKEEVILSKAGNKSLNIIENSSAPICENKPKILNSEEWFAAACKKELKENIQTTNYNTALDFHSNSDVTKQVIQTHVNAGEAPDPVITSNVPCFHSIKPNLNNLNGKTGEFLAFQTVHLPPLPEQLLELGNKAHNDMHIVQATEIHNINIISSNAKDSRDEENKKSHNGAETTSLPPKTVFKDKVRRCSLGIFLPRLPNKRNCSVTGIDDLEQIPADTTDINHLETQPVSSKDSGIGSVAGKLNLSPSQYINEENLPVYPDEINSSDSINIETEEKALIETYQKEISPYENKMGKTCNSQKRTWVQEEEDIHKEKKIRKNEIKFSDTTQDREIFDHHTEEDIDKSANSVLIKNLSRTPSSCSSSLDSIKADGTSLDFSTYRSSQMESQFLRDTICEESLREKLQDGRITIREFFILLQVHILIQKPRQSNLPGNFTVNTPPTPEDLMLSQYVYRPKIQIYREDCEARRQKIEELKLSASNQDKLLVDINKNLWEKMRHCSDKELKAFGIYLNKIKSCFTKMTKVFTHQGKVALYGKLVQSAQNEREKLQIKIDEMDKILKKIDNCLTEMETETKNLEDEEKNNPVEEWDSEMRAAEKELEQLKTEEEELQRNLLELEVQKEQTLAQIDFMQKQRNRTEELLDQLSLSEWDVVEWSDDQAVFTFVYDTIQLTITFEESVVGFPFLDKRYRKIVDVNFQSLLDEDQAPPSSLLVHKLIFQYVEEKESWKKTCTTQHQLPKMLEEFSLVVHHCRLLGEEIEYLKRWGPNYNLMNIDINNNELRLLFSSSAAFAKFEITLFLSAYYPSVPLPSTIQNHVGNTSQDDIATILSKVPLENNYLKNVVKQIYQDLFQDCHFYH
UniProt Q03164, whole entry, looked up: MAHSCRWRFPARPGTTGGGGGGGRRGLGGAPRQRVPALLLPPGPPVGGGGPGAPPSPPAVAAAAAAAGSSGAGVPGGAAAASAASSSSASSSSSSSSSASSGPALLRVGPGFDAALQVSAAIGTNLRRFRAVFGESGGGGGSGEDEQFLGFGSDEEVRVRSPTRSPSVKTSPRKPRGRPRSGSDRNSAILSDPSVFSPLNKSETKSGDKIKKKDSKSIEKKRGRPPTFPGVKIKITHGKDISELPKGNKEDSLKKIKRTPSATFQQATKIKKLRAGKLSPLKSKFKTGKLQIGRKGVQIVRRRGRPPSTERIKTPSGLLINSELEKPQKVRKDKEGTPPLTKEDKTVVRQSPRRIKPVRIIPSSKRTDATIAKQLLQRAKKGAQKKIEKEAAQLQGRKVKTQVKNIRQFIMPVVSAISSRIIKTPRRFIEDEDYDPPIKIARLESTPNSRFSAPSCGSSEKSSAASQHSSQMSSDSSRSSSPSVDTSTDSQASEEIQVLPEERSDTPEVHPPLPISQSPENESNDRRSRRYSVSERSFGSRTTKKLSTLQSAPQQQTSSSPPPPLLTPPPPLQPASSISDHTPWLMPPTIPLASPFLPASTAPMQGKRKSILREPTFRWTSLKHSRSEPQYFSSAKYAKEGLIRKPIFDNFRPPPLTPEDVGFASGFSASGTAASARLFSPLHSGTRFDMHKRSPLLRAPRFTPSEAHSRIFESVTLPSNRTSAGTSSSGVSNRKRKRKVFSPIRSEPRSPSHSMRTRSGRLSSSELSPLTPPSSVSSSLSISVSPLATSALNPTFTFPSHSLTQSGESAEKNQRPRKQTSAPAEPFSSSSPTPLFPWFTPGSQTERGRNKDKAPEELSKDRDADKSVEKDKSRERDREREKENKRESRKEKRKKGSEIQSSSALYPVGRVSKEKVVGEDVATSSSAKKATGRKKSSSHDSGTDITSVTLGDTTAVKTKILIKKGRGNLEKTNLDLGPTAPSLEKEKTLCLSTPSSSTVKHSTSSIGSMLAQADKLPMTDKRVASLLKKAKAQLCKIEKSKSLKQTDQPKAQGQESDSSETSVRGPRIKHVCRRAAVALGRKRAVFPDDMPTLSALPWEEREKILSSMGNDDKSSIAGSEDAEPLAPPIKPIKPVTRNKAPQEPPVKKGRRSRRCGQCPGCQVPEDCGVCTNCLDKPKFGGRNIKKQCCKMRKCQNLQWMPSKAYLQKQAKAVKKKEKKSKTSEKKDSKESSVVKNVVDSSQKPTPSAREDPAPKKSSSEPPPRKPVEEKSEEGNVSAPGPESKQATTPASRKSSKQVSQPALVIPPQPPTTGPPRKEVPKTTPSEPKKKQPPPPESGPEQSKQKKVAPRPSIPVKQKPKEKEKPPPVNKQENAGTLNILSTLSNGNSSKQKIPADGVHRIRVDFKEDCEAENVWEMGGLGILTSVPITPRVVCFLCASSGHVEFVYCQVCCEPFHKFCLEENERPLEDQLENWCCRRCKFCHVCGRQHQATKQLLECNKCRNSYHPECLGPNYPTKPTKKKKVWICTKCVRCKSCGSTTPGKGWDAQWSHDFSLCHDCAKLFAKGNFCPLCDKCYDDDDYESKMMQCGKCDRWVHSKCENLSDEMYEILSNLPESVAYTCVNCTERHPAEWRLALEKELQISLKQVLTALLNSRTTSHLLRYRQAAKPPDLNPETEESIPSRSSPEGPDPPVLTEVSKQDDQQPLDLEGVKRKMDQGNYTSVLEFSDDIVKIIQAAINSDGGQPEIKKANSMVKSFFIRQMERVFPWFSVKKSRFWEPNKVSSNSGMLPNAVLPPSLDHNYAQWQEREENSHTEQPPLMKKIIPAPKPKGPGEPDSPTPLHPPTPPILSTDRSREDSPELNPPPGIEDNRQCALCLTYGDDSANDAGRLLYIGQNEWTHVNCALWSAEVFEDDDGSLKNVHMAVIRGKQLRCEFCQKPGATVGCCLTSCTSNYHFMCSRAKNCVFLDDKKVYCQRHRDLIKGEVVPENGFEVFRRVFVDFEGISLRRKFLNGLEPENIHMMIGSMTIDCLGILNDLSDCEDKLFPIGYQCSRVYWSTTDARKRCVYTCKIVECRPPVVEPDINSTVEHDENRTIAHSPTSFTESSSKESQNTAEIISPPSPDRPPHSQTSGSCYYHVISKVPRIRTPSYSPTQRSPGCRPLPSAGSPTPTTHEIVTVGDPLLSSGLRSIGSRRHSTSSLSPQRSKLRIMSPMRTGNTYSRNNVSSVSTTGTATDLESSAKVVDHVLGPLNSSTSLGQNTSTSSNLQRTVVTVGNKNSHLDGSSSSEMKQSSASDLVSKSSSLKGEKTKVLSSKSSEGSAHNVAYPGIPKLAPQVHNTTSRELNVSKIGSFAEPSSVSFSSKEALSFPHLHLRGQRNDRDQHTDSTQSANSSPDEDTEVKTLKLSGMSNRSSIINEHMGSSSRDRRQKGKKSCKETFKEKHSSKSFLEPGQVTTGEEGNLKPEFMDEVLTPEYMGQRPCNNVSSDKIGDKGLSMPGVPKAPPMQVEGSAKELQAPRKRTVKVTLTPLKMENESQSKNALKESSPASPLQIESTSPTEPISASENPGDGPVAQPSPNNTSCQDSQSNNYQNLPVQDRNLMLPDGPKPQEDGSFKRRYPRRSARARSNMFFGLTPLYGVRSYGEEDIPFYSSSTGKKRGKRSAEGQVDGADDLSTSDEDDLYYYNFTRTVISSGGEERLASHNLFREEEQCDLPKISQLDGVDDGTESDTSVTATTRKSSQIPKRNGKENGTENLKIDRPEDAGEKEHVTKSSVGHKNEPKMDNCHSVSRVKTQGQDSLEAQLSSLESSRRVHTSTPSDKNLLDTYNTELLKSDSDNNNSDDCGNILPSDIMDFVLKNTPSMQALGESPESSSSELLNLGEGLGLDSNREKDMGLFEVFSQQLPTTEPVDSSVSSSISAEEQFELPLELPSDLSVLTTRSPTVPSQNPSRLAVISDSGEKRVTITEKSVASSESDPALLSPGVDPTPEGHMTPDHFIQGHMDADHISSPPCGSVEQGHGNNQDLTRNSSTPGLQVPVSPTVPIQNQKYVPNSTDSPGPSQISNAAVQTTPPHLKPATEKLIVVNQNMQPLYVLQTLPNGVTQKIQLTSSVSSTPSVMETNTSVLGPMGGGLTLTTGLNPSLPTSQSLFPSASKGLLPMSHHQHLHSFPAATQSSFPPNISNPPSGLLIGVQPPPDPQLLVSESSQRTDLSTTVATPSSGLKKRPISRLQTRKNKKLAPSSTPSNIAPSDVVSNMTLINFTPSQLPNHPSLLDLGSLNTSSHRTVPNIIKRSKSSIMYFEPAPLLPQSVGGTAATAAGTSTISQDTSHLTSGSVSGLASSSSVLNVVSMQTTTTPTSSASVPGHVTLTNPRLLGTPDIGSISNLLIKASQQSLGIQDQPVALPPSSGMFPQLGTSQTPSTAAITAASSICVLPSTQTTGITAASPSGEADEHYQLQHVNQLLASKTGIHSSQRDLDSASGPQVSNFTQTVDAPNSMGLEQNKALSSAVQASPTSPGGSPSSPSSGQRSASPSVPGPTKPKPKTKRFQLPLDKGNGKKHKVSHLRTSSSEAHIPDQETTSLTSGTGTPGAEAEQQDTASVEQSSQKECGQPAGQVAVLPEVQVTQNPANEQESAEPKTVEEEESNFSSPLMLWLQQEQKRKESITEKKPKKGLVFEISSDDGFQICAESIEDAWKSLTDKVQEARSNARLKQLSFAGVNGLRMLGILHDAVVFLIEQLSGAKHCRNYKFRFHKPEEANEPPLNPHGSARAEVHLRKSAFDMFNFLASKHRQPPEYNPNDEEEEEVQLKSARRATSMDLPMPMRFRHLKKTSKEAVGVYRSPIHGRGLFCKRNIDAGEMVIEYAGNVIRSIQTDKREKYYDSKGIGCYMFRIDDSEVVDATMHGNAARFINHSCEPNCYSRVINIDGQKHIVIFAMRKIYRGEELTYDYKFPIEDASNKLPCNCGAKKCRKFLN

compound: Cn1cc(-c2ccc3c(c2)CCN3C(=O)Cc2cccc(C(F)(F)F)c2)c2c(N)ncnc21; assay: log2 fold change, soluble protein after heating vs DMSO (PISA); higher = thermal stabilisation; K562 cells, 10 uM, 30 min; active = over 0.2 and 3.5 SD of the protein, either way, in both replicates (recomputed)
Summary of the method: (§1)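 Values are thermal stability changes relative to control samples and are taken from duplicates. They are stated as log2 fold changes. Before quantification by TMTpro 16plex LC-MS/MS with equalised channel sums, K562 cells at 2×10^6 cells/mL were treated with 10 μM compound for 30 min, heated in aliquots for 3 min across 48°C-58°C, pooled, extracted in PBS with 0.5% NP-40 at 4°C, and centrifuged at 21,000xg for 90 min to give the soluble supernatant.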

log2 fold change, inactive:
KATNBL1 (UniProt Q9H079) -0.065
KIAA0040 (UniProt Q15053) -0.034
KATNAL1 (UniProt Q9BW62) 0.153
KIF1C (UniProt O43896) 0.236
KIF13A isoform 4 (UniProt Q9H1H9) 0.069
KIAA0754 (UniProt O94854) -0.176
KIZ (UniProt Q2M2Z5) -0.446
KCNH2 (UniProt Q12809) -0.217
KIFC1 (UniProt Q9BW19) -0.072
KDF1 (UniProt Q8NAX2) -0.165
JOSD1 (UniProt Q15040) -0.117
KLHL42 (UniProt Q9P2K6) 0.117
KNL1 (UniProt Q8NG31) 0.151
KMT2A isoform 3 (UniProt Q03164) 0.122
KMT2E (UniProt Q8IZD2) -0.006
KDM3A (UniProt Q9Y4C1) 0.095
KDM6A (UniProt O15550) -0.062
KIF16B isoform 2 (UniProt Q96L93) 0.019
KIF4A (UniProt O95239) -0.078
KIF14 (UniProt Q15058) -0.24

compound: Cn1cc(-c2ccc3nnc(C(F)(F)c4ccc5ncccc5c4)n3n2)cn1; assay: as above
Summary of the method: as §1

log2 fold change, inactive:
KATNBL1 (UniProt Q9H079) -0.256
KLHL20 (UniProt Q9Y2M5) 0.022
KIAA0754 (UniProt O94854) 0.152
KIZ (UniProt Q2M2Z5) 0.196
KIFC1 (UniProt Q9BW19) -0.247
KDF1 (UniProt Q8NAX2) -0.251
KNL1 (UniProt Q8NG31) -0.015
KMT2A isoform 3 (UniProt Q03164) -0.034
KIF21A (UniProt H0YI78) 0.134
KDM6A (UniProt O15550) -0.002
KIF16B isoform 2 (UniProt Q96L93) -0.006
KIF21B (UniProt O75037) -0.246
KIF20B isoform 2 (UniProt Q96Q89) -0.133
JMJD8 (UniProt Q96S16) -0.195
